One experiment concerns the target OPG-Stop402Gln (human) (UniProt O00300). As to the kind of experiment: SDS-PAGE and western blot; culture medium of transfected 293F cells harvested 3 days post transfection, SDS-PAGE, blotted with rabbit anti-OPG polyclonal antibody. A general note: In western blotting, separated proteins are transferred to a membrane and probed.
For a further experiment, the target named is OPG-Stop402Tyr (human) (UniProt O00300). The description is as above.
Experiment [1] addresses human osteoprotegerin Stop402Leu mutant with a 19-residue C-terminal appendage (OPG^+19) (human) (UniProt O00300). Description: condition: only reduced with 2-mercaptoethanol (SDS-PAGE); reducing SDS-PAGE; SEC-purified protein reduced with 2-mercaptoethanol, SDS-PAGE, silver staining; both purified.

Substitutions are numbered along the chain they refer to. No constants are given. Whether binding was seen depends on the method and setting. Some entries that bind do so weakly or less than the wild type.

Our source for the binding values is paper PMC9464236, “Biochemical characterization of a disease-causing human osteoprotegerin variant” (Scientific Reports, 2022).

B1: OPG-Stop402Gln (receptor, UniProt O00300 22-401)
chain: ETFPPKYLHYDEETSHQLLCDKCPPGTYLKQHCTAKWKTVCAPCPDHYYTDSWHTSDECLYCSPVCKELQYVKQECNRTHNRVCECKEGRYLEIEFCLKHRSCPPGFGVVQAGTPERNTVCKRCPDGFFSNETSSKAPCRKHTNCSVFGLLLTQKGNATHDNICSGNSESTQKCGIDVTLCEEAFFRFAVPTKFTPNWLSVLVDNLPGTKVNAESVERIKRQHSSQEQTFQLLKLWKHQNKDQDIVKKIIQDIDLCENSVQRHIGHANLTFEQLRSLMESLPGKKVGAEDIEKTIKACKPSDQILKLLSLWRIKNGDQDTLKGLMHALKHSKTYHFPKTVTQSLKKTIRFLHSFTMYKLYQKLFLEMIGNQVQSVKISCLQLEMAIELFPHNWRDPMDE
On to B1, for which, in the experiment with OPG-Stop402Gln (human), the binding result was “binds”.

B2: OPG-Stop402Tyr (receptor, UniProt O00300 22-401)
chain: B1 chain with Q381Y
As for B2, the binding result with OPG-Stop402Tyr (human) is given as “binds”.

B3: human osteoprotegerin Stop402Leu mutant with a 19-residue C-terminal appendage (OPG^+19) (receptor)
chain: B1 chain with Q381L
notes: Osteoprotegerin (OPG, TNFRSF11B), human; complete open reading frame, residues up to 401, followed by the read-through appendage; 19-residue appendage 402-420 made by read-through of the mutated stop codon (Stop402Leu); Secreted; Mixture of higher-order oligomers; also called mutant hOPG; mutant OPG; source: 293-freestyle cells, transiently transfected; purified from medium (heparin Sepharose, …)
In the case of B3, the binding entry in experiment [1] is on record as “no binding”.
